Each structure is given as a SMILES string. Among all 2,400 compounds or so, about 20 (0.8%) were called active.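 The calls were made as follows: active = AC50 no more than ten times the highest tested concentration, or full inhibition at every dose giving a flat fit (cut at about 30 µM in these data); inconclusive = flat fit with activity between 30% and 70%, or poor-quality invalid fit; inactive = AC50 more than ten times the top tested dose.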 This is one part of the list. Where only a bound is given, the exact number is not on record here.

The experiment can be described thus: inhibitors of ADP-Glo detection reagents, dose response, artefact control for GSK-3a inhibitor project, biochemical, luminescence, cell-free, homogeneous (AID 463205).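 Also: kinase-free counter-screen against the ADP-Glo detection reagents only; potency is for inhibitors that reduce the luminescence signal.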 Particulars: 5 uM ADP. (In general: ADP-Glo first removes unused ATP, then detects ADP through luciferase.)
By AC50 is commonly meant the midpoint of the concentration-response curve, whichever way the signal moves. `O=C(O)c1cc(-c2ccc(/C=N/N3C(=O)C4C5C=CC(C6CC56)C4C3=O)o2)ccc1Cl` (stereo unspecified): the AC50 was inactive: > 30 µM.

Take `Cc1cc(NC(=O)c2sc(Nc3ccc(F)cc3)nc2N)no1`: the AC50 is inactive: > 30 µM.

For `C[C@H](NC(=O)c1nc[nH]c1C(=O)NC1CCNCC1)C(=O)OCc1ccccc1`, the AC50 was inactive: > 30 µM.

For the compound `CCOC(=O)c1ccc(N2CSC3=C(C#N)C(c4cccs4)CC(=O)N3C2)cc1` (stereo unspecified), the AC50 was inactive: > 30 µM.

As to `Cn1c(N=Nc2ccccc2)nc2ccccc21`, the AC50 is active: 27.9 µM.

Regarding `CC(=O)c1cccc(-c2ccc3c(=O)[nH]c(Nc4ccccc4)cc3c2)c1`, the AC50 is inactive: > 30 µM.

Take `Clc1ccc(Nc2ncn[nH]2)cc1`: the AC50 was inactive: > 30 µM.

With `COc1ccc2nc(C)cc(N3CCN(S(=O)(=O)c4ccccc4F)CC3)c2c1`, the AC50 was inactive: > 30 µM.

`CCn1ncc([N+](=O)[O-])c1C(=O)N1CCCC1`: the AC50 is inactive: > 30 µM.

Take `COc1ccccc1N1CCN(CCC(=O)Nc2cccc(Cl)c2)CC1`: the AC50 was inactive: > 30 µM.

As for `COC(=O)c1nnn(-c2ccccc2)c1N`, the AC50 is inactive: > 30 µM.

`Cc1onc(-c2ccccc2Cl)c1C(=O)Nc1ccc(-c2cn3cccnc3n2)cc1`: the AC50 was inactive: > 30 µM.

As to `C[n+]1cccc(/C=N/Nc2nc(Cl)c(C#N)c(Cl)c2Cl)c1`, the AC50 was inactive: > 30 µM.

Turning to `Cc1ccc(NC(=O)CSc2nnc(-c3ccncc3)s2)cc1`, the AC50 was inactive: > 30 µM.

With `O=C1CCCC/C1=C\Nc1ccc(O)cc1`, the AC50 was inactive: > 30 µM.

For the compound `CNc1nc(N)c([N+](=O)[O-])c(N2CCCCCC2)n1`, the AC50 is inactive: > 30 µM.

Regarding `COc1ccc(CCNC2=C(Cl)C(=O)N(Cc3ccccc3)C2=O)cc1OC`, the AC50 was inactive: > 30 µM.

As to `Cc1ccc(C(=O)c2c(NC(=O)CSc3nnc(N)s3)sc3c2CCCC3)cc1`, the AC50 is inactive: > 30 µM.

Consider `CCS(=O)(=O)N1CCN(c2ccnc3cc(Cl)ccc23)CC1`, for which the AC50 is inactive: > 30 µM.

Turning to `O=c1[nH]c2c(s1)C(c1ccc(O)cc1)C1C3CCC(C3)C1S2` (stereo unspecified), the AC50 was inactive: > 30 µM.

With `COC1(OC)N=C(N)C2(C#N)C(c3ccc4c(c3)OCO4)C12C#N` (stereo unspecified), the AC50 is inactive: > 30 µM.

As to `O=C(NCc1ccc2c(c1)OCO2)c1cc(COc2c(F)cccc2F)on1`, the AC50 was inactive: > 30 µM.

`Cc1oc2ccc(O)c(CN(C)C)c2c1C(=O)c1ccccc1`: the AC50 is inactive: > 30 µM.

As for `COc1ccc(-c2ncncc2-c2ccc(OC)c(OC)c2)c(O)c1`, the AC50 is inactive: > 30 µM.

Regarding `Nc1ncnc2c1ncn2[C@H]1C[C@H](O)[C@@H](CO)O1`, the AC50 is inactive: > 30 µM.

Take `O=C1CCCN1CCCNc1ncccc1[N+](=O)[O-]`: the AC50 was inactive: > 30 µM.

These data come from PubChem BioAssay AID463205 (Broad Institute, 2010).
